Results deposited as PubChem BioAssay AID1259254 (NCATS, 2017)
Assay: 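Gene knock-downs that lead to re-replication, shown by excess G2 DNA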 (primary screen). Cells: human HCT116 colorectal cancer cells. Reagents: single siRNA against human genes. Duration: 3 days. Read-out: 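Nuclei stained with Hoechst and imaged; cell-cycle phase assigned by DNA content; G2 share scaled per plate, non-targeting siRNA 0%, GMNN siRNA 100%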. Direction: G2 robust z-score: higher = more G2 cells, more excess DNA replication. Rule for the call: 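Active siRNAs have a G2 robust z of 5 or more median absolute deviations over the median, which in these data means about 38% or higher of GMNN control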.
This is one part, drawn at random, of about 59,000 reagents tested. About 1,550 of them (2.6%) were called active. 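G2 share is only a proxy for re-replication; each gene was hit by three separate siRNAs, and active genes were retested.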 The numbers tell different reagents against one gene apart. Not all columns of the deposit are shown. Not given: the amount of reagent.

SMCP #1 — G2 robust z-score: 0.537; Call: inactive
SMCP #2 — G2 robust z-score: -0.716; Call: inactive
SMCP #3 — G2 robust z-score: -0.528; Call: inactive
RALGPS2-AS1 #1 — G2 robust z-score: -0.577; Call: inactive
RALGPS2-AS1 #2 — G2 robust z-score: 4.19; Call: inactive
RALGPS2-AS1 #3 — G2 robust z-score: -0.342; Call: inactive
CALCOCO1 #1 — G2 robust z-score: 0.0384; Call: inactive
CALCOCO1 #2 — G2 robust z-score: 2.33; Call: inactive
CALCOCO1 #3 — G2 robust z-score: 0.483; Call: inactive
NSG1 #1 — G2 robust z-score: 1.46; Call: inactive
NSG1 #2 — G2 robust z-score: 1.68; Call: inactive
NSG1 #3 — G2 robust z-score: 0.455; Call: inactive

Copied from the entries so far, 2 entries:
CALCOCO1 #2 — G2 robust z-score: 2.33; Call: inactive
CALCOCO1 #3 — G2 robust z-score: 0.483; Call: inactive
